{
  "sequences": {"note": "By UniProt entry, the sequences of proteins in these tests, tags left out. Where a name states a change or a piece, a line headed by the entry shows the natural chain unless it says otherwise.", "UniProt Q9UNA4": "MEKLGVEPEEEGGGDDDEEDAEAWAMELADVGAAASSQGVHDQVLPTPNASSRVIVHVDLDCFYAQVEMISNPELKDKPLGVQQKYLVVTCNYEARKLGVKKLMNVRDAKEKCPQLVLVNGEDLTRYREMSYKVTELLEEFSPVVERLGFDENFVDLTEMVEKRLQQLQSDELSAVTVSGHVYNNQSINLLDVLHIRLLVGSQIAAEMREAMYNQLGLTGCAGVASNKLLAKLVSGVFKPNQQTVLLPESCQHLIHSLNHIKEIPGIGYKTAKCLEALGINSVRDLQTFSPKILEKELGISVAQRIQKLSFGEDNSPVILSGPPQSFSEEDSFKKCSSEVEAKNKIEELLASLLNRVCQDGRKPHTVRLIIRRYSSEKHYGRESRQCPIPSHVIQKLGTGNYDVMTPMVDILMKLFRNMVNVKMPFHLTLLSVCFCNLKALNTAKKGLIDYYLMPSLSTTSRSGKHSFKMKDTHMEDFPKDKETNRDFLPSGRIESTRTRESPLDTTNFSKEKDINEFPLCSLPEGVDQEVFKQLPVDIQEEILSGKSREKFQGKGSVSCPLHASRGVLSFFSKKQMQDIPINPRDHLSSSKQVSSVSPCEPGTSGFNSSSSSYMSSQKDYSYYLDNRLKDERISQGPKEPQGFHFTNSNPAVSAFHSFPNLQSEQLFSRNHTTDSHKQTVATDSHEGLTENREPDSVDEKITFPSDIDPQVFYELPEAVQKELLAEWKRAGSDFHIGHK"},
  "source": "PubChem BioAssay AID588590",
  "about": "(National Center for Advancing Translational Sciences (NCATS), 2011)",
  "note": "Hit rate of the full screen: of about 390,000 compounds, about 4,000 (1%) were called active. Inconclusive means that the source gave no clear call. Such entries were picked first, then a sample of the others. Calls come from the whole dose curve; as a rule, active = well fitted inhibition curve with a large enough effect; inconclusive = small, poorly fitted or top-dose-only effect, or another doubt; inactive = no such curve, though single readings can be large or run the other way. Potencies beside an inconclusive call are fits to weak or partial responses and may not hold up. Potency is the fitted concentration of half-maximal effect.",
  "data": [
    {"target": "DNA polymerase iota (Homo sapiens) (UniProt Q9UNA4)", "assay": "qHTS for Inhibitors of Polymerase Iota", "settings": "Pol iota fluorescent replication assay, 10 min; series mostly up to 115 µM", "how_it_was_run": "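Pol iota at 10 nM preincubated 15 min with compounds at room temperature; reaction started with fluorescent substrate, 50 nM final. Fluorescence read kinetically at 0 and 10 min; buffer-only wells as negative control.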", "values": [
      {"smiles": "COC(=O)N1C(=O)[C@](c2ccccc2)(C2CCCC2)N1C(=O)OC", "Potency": "inconclusive: 39.8 µM [inhibitor, single point]"},
      {"smiles": "CCOC(=O)/C(=C/Nc1ccc(F)cc1)[N+](=O)[O-]", "Potency": "inconclusive: 56.2 µM [inhibitor, partial curve, poor fit]"},
      {"smiles": "COc1cc(-c2nc3ccc(C)cn3c2NCc2ccccc2)ccc1SC1CCCCC1", "Potency": "inconclusive: 25.1 µM [inhibitor, partial curve]"},
      {"smiles": "CC1(OC(=O)C2CCCC2)C(=O)C=C2C=C(c3ccsc3)N(C3CCCC3)C=C2C1=O", "note": "(stereo unspecified)", "Potency": "inconclusive: 35.5 µM [inhibitor, single point]"},
      {"smiles": "Cc1ccc2c(c1)cc(C(=O)NCc1ccccc1)n2C", "Potency": "inconclusive: 20 µM [inhibitor, partial curve, poor fit]"},
      {"smiles": "O=C(NCc1ccccc1)c1c[nH]c2ccc(S(=O)(=O)Nc3ccc4c(c3)OCCO4)cc2c1=O", "Potency": "inconclusive: 11.2 µM [inhibitor, full curve, poor fit]"},
      {"smiles": "CCC(C)NC(=O)c1cccc(NC(=O)c2nsc3ccccc23)c1", "note": "(stereo unspecified)", "Potency": "inactive"},
      {"smiles": "O=C(Nc1ccc(S(=O)(=O)Nc2nccs2)cc1)c1cc(-c2ccccc2Cl)nc2ccccc12", "Potency": "inconclusive: 8.91 µM [inhibitor, partial curve, poor fit]"},
      {"smiles": "COc1cc(C=c2c3ccccc3n3c2cc(-c2ccccc2)[n+]3C)cc(OC)c1OC", "Potency": "inconclusive: 56.2 µM [inhibitor, partial curve, poor fit]"},
      {"smiles": "CN(C)N1C(N)=C(C#N)C(c2ccccc2F)C2=C1CC(C)(C)CC2=O", "note": "(stereo unspecified)", "Potency": "inconclusive: 39.8 µM [inhibitor, single point]"},
      {"smiles": "CC[C@H](C)[C@H]1CNC(=O)C(=O)N1CC1CCN(CCc2ccccc2)CC1", "Potency": "inconclusive: 15.8 µM [inhibitor, partial curve, poor fit]"},
      {"smiles": "O=C(O)CC/C(=C\\c1cc([N+](=O)[O-])ccc1Cl)c1nc2ccccc2s1", "Potency": "inactive"},
      {"smiles": "COc1cc2nc(SCC(=O)Nc3ccccc3F)n3nc(-c4ccccc4)nc3c2cc1OC", "Potency": "inactive"},
      {"smiles": "CN(C)CCNC(=O)Nc1ccc(Cl)c(Cl)c1", "Potency": "inconclusive: 89.1 µM [inhibitor, partial curve, poor fit]"},
      {"smiles": "CC(=O)/C(C#N)=C1\\NC(=O)C(Cc2cc(Cl)ccc2Cl)S1", "note": "(stereo unspecified)", "Potency": "inactive"},
      {"smiles": "O=C(O)COc1ccc(/C=C/c2ccc3cccc([N+](=O)[O-])c3n2)cc1", "Potency": "inconclusive: 22.4 µM [inhibitor, partial curve]"},
      {"smiles": "CCc1ccc([C@@H]2CC=C(C(=O)O)[C@H](c3ccc(F)cc3)N2S(=O)(=O)c2ccc(C)cc2)cc1", "Potency": "inconclusive: 79.4 µM [inhibitor, single point]"},
      {"smiles": "Cc1ccn2c(=O)nc(SCC(=O)NC3CCCC3)nc2c1", "Potency": "inconclusive: 31.6 µM [inhibitor, partial curve, poor fit]"},
      {"smiles": "Cc1ccc(CNC(=O)c2ccc(CSCc3ccccc3C)o2)cc1", "Potency": "inconclusive: 1 µM [inhibitor, full curve, poor fit]"},
      {"smiles": "COc1ccc(-c2nc3ccc(NS(=O)(=O)c4ccc(Cl)cc4)cc3o2)cc1", "Potency": "inactive"},
      {"smiles": "COc1cc(/C=C2\\SC(=S)N(NC(=O)c3ccccc3O)C2=O)ccc1O", "Potency": "active: 14.1 µM"},
      {"smiles": "O=C(Oc1cc(=O)oc2ccccc12)c1ccccc1", "Potency": "inactive"},
      {"smiles": "FC(F)Oc1ccc(/C=N/c2c(-c3ccc(OC(F)F)cc3)nc3n2CCS3)cc1", "Potency": "inconclusive: 28.2 µM [inhibitor, single point]"},
      {"smiles": "CC(c1nnc(SCC(=O)Nc2sccc2C#N)n1-c1ccc(Cl)cc1)N(C)C", "note": "(stereo unspecified)", "Potency": "inconclusive: 89.1 µM [inhibitor, partial curve, poor fit]"},
      {"smiles": "Cc1ccccc1Nc1cc(C(=O)NCc2cccs2)c2ccccc2n1", "Potency": "inactive"},
      {"smiles": "Cc1cccc(-n2c(SCC(=O)N3CCC(C(=O)O)CC3)nc3ccccc3c2=O)c1C", "Potency": "inconclusive: 89.1 µM [inhibitor, partial curve, poor fit]"},
      {"smiles": "C=C(C)Cn1c(=O)c2c(nc3n2CCN3c2ccc(F)cc2)n(C)c1=O", "Potency": "inconclusive: 89.1 µM [inhibitor, single point]"},
      {"smiles": "COc1ccc(OC)c(/C=N/Nc2nncn2/N=C/c2cc(OC)ccc2OC)c1", "Potency": "inconclusive: 10 µM [inhibitor, full curve, poor fit]"},
      {"smiles": "O=C(CSCc1ccc(Cl)cc1)NCc1ccc2c(c1)OCO2", "Potency": "inconclusive: 3.16 µM [inhibitor, single point]"},
      {"smiles": "COc1ccc(CNS(=O)(=O)c2ccc(-c3cnc(C4CC4)o3)cc2)cc1", "Potency": "inconclusive: 70.8 µM [inhibitor, single point]"},
      {"smiles": "Cc1cccc(OCCn2c(SCC(=O)O)nc3ccccc32)c1", "Potency": "inconclusive: 89.1 µM [inhibitor, single point]"},
      {"smiles": "Cc1cc(C)c2sc(NC(=O)C3=COCCO3)nc2c1", "Potency": "inactive"},
      {"smiles": "CCCn1c(N2CCN(C(=O)N3CCCCC3)CC2)nc2ccccc21", "Potency": "inconclusive: 31.6 µM [inhibitor, partial curve, poor fit]"},
      {"smiles": "O=C(NCCCn1ccnc1)c1cccc(Br)c1", "Potency": "inconclusive: 56.2 µM [inhibitor, partial curve, poor fit]"},
      {"smiles": "CCCCN1C(C(=O)c2ccccc2)=C(OC(C)=O)c2ccccc2S1(=O)=O", "Potency": "inconclusive: 56.2 µM [inhibitor, partial curve, poor fit]"},
      {"smiles": "COc1ccc(NC(=O)CNC(=O)Cn2c(C)cc3ccccc3c2=O)cc1OC", "Potency": "inactive"},
      {"smiles": "CCCCCCOc1ccc(C2C(=O)N(C3CCCCC3)CC(=O)N2CCCC)cc1", "note": "(stereo unspecified)", "Potency": "inconclusive: 100 µM [inhibitor, single point]"},
      {"smiles": "CCOc1cccc(C(=O)Nc2cc(-c3ccc(C)cc3)no2)c1", "Potency": "inconclusive: 100 µM [inhibitor, partial curve, poor fit]"},
      {"smiles": "CN1C(=O)/C(=C2\\SC(=S)N(C(CCC(=O)O)C(=O)O)C2=O)c2ccccc21", "note": "(stereo unspecified)", "Potency": "inconclusive: 20 µM [inhibitor, partial curve, poor fit]"},
      {"smiles": "NC(=O)NC(=O)COC(=O)c1ccc(OC(F)(F)F)cc1", "Potency": "inactive"},
      {"smiles": "Nc1nc(Nc2ccccc2)nc2c1ncn2[C@@H]1O[C@H](CO)[C@H](O)[C@H]1O", "Potency": "inactive"}
    ]}
  ]
}
